## Screening data, single-dose tests

The chains behind the UniProt entries cited, without tags or fusion partners. Residues count along the entry.
UniProt Q8IDJ8, 1-583: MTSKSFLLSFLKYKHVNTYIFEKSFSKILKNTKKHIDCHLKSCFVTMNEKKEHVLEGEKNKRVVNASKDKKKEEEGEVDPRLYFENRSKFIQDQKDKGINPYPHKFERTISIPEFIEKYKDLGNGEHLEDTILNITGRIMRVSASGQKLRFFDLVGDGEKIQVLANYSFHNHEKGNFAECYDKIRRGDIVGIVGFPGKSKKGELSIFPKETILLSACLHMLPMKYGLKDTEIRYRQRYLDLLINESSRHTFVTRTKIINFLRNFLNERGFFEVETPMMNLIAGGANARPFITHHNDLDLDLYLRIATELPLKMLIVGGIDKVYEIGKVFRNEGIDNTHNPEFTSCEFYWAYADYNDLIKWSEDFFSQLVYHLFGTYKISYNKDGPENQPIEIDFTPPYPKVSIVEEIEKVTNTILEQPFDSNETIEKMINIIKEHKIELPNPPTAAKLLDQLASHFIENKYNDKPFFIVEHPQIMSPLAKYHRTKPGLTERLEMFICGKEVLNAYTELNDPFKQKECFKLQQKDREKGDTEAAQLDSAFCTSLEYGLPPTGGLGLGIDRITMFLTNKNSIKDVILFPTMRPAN
UniProt Q4DA54, 1-478: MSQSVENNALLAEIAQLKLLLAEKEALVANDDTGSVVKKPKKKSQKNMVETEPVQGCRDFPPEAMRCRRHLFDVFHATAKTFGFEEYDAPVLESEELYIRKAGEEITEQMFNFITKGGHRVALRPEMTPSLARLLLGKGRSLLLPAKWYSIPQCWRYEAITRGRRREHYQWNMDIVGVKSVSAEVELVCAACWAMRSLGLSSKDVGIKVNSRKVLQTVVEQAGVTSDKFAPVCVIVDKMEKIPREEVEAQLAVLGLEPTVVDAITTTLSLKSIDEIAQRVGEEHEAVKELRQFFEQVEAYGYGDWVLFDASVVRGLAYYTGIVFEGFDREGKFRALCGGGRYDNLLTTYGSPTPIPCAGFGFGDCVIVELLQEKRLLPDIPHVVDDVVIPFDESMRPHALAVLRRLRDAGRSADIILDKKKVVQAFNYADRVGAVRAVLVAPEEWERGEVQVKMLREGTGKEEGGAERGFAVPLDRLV

Source: ChEMBL document CHEMBL3988442, “University of Dundee, Small-Polar-MMV Screening Library” (2021).

A: 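Cell assay of Leishmania donovani living inside macrophages; the read-out is not stated. Compounds at 30 µM. Direction is inferred from retests: higher values go with stronger inhibition. Of about 69,000 compounds tested this way, about 1,000 (1.5%) reached 50% or more in at least one test.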
B: 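Whole-parasite assay of Trypanosoma brucei over 72 hours; the read-out is not stated. Concentration: 30 µM. Higher reads as stronger inhibition (inferred: compounds with an IC50 in retests scored well above the rest). Values scatter widely below zero; nearly all retest evidence comes from the higher of the two concentrations used. About 64,000 compounds were tested under these conditions; 1.5% (about 940) showed 50% or more at least once.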
C: 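Assay of Toxoplasma gondii numbers, read through their beta-galactosidase reporter with a colour substrate. Concentration: 10 µM. Higher reads as fewer parasites (inferred from which compounds were picked for retests). About 67,000 compounds were tested under these conditions; 0.38% (about 260) showed 50% or more at least once.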
D: 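Enzyme assay of the cytosolic lysyl-tRNA synthetase in 384-well plates, read by luminescence. Target: Lysine-tRNA ligase, Plasmodium falciparum 3D7 (UniProt Q8IDJ8). Concentration: 30 µM. Direction is inferred from only a few compounds that gave an IC50; most scored high, so higher reads as stronger inhibition. About 69,000 compounds were tested under these conditions; 0.071% (about 49) showed 50% or more at least once.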
E: 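Histidine-tRNA ligase, Trypanosoma cruzi CL Brener (UniProt Q4DA54). Enzyme assay of histidyl-tRNA synthetase; the read-out is not stated. Compounds at 30 µM. Direction is inferred from retests: higher values go with stronger inhibition. About 69,000 compounds were tested under these conditions; 0.045% (about 31) showed 50% or more at least once.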

Each number is a percent effect as filed.
The record does not define 0% and 100%; most values in the screen are far below 50% and negative numbers occur (in some assays of this library far below -100).
Compounds were drawn at random from those tested, without regard to their results.
Two or more numbers in one place are separate tests of the same structure; such repeats can differ widely.
A dash means the value is not listed here; it may have been measured.

SMILES,A,B,C,D,E
CCCc1nnc(N2CCC3(CCC(=O)N(C)C3)CC2)o1,27.72%,1.969%,5.578%,4.462%,-0.8%
CCN(CC)c1ccc(CNC(=O)C2(C)CCOCC2)cc1F,8.274%,-287.3%,-5.725%,3.956%,6.349%
Cc1ccc(C(=O)NCCCn2cncn2)c(=O)[nH]1,24.58%,13.19%,-11.05%,2.898%,7.407%
COCc1nn(C)c2c1CCN(Cc1cnn(C)c1)C2,-,-,-,-2.134%,5.825%
CCC(CC)NC(=O)c1nc2n(n1)-c1ccccc1S(=O)(=O)N2,10.39%,-22.38%,3.158%,4.871%,0.6135%
CC(C)(CNC(=O)C(C)(C)c1ccccc1F)C(N)=O,-61.63%,-,16.89%,3.516%,5.263%
Cc1cc(C2CCCN2C(=O)CN2CCc3ccccc32)on1 (stereo not given),5.551%,-49.79%,5.763%,0.9453%,3.614%
O=C(N1CCCC1)N1CCCC(c2nccn2Cc2ccncc2)C1 (stereo not given),27.48%,-30.44%,21.77%,4.035%,3.061%
CN(C)C(=O)N1CCN(Cc2cnn(C)c2)CC2(CNC(=O)C2)C1.O=C(O)C(F)(F)F (stereo not given),12.89%,-,-2.743%,-,-
CCOC[C@]12COC[C@H]1CN(Cc1cccc(OC)c1)C2,-,-,-,5.078%,10.92%
O=C1CC2(CCN(CC3CCOC3)CC2)CN1Cc1cc(F)cc(F)c1 (stereo not given),41.14%,-1.251%,-12.85%,2.803%,0%
Cc1ccc2c(c1)CCC2NC(=O)N1CCC(C(N)=O)CC1 (stereo not given),22.79%,-,8.098%,2.21%,0%
CS(=O)(=O)NCCCNc1ccc(C(F)(F)F)cc1C#N,-0.2534%,-19.74%,3.539%,-1.888%,6.579%
CCn1cc(CN2CCCN(C(=O)CCSC)CC2)cn1,19.34%,-19.62%,-13.79%,2.108%,3.448%
COc1cc(O)cc2c1C(=O)CC(c1ccc(O)cc1)O2 (stereo not given),0.5123%,-8.44%,-2.96%,7.449%,1.98%
COC(=O)c1ccc(S(=O)(=O)NCC(O)c2sccc2C)cc1 (stereo not given),7.908% and 1.018%,12.83%,3.861%,2.66%,3.093%
Cc1ccc(OCCC(=O)NC(C)c2ccncc2)cc1 (stereo not given),-7.85%,-61.23%,-30.31%,0.8596%,5.155%
CCCn1cc(S(=O)(=O)N(C)Cc2nonc2C)c(C)n1,-13.86%,-11.85%,12.39%,2.489%,9.302%
CC(OCC1CC1)C(=O)N1CCCN(Cc2nccn2C)CC1 (stereo not given),4.869%,-3.965%,-3.093%,2.589%,2.632%
CC(C)Cn1cnnc1C1CCCN1C(=O)c1cc2ccccn2c1 (stereo not given),-4.673%,-80.32%,19.17%,1.243%,11.6%
CCC(=O)N1CC[C@H](O)[C@@H]1Cc1ccccc1,6.37%,-11.09%,-34.78%,6.966%,7.212%